# Counter-ions that a name gives are not always drawn. This is one part of the list. Repeats in this data set agree poorly, so a single value says little.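 ReNCell VM, a human fetal ventral-midbrain neural progenitor line, was differentiated without mitogens. Blinded raters scored images stained for doublecortin (early neurons) or tyrosine hydroxylase (dopaminergic neurons) against untreated wells (0 = no change). Scores were averaged across repeats and both raters, and compounds averaging 2 or more were selected as hits for retesting.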
# What was measured:
# [1] = system: ReNCell VM; test: neuronal differentiation score (DCX+ cell fraction vs untreated, manual image score) (score (-3 to 3)); higher = more neuronal differentiation; conditions: 2 uM, 2 weeks
# [2] = system: ReNCell VM; test: dopaminergic neuron differentiation score (TH+ cell fraction vs untreated, manual image score) (score (0 to 3)); higher = more TH+ dopaminergic neuron differentiation; conditions: 2 uM, 4 weeks, BDNF 10 ng/ml + GDNF 10 ng/ml
compound,measurement,setting,value
O=c1oc2c(O)c(O)cc3c(=O)oc4c(O)c(O)cc1c4c23,neuronal differentiation score,[1]; library: Spectrum,inactive: 0
same,dopaminergic neuron differentiation score,[2]; library: Spectrum,inactive: 0
C[N+]1(C)CCC(OC(=O)C(O)(c2ccccc2)C2CCCC2)C1 (stereo unspecified),neuronal differentiation score,[1]; library: Spectrum,inactive: 0
same,dopaminergic neuron differentiation score,[2]; library: Spectrum,inactive: 0
CCCC[C@@H](C=O)NC(=O)[C@H](CC(C)C)NC(=O)OCc1ccccc1 [Calpeptin],neuronal differentiation score,[1]; library: Tocriscreen,inactive: 0
same,dopaminergic neuron differentiation score,[2]; library: Tocriscreen,inactive: 0
CN(C)CCCOc1nn(Cc2ccccc2)c2ccccc12,neuronal differentiation score,[1]; library: Spectrum,inactive: 0
same,dopaminergic neuron differentiation score,[2]; library: Spectrum,inactive: 0
O=C(O[C@@H]1C[C@@H]2C[C@H]3C[C@H](C1)N2CC3=O)c1c[nH]c2ccccc12 [Dolasetron mesilate],neuronal differentiation score,[1]; library: Prestwick,inactive: 0
same,dopaminergic neuron differentiation score,[2]; library: Prestwick,inactive: 0
NC(N)=O,neuronal differentiation score,[1]; library: Spectrum,inactive: 0
same,dopaminergic neuron differentiation score,[2]; library: Spectrum,inactive: 0
CC(=O)OCC(=O)[C@@]1(O)[C@H](OC(C)=O)C[C@H]2[C@@H]3CCC4=CC(=O)C=C[C@]4(C)[C@@]3(F)[C@@H](O)C[C@@]21C,neuronal differentiation score,[1]; library: Spectrum,inactive: 0
same,dopaminergic neuron differentiation score,[2]; library: Spectrum,inactive: 0
Cc1cccc(C(=O)O)c1O,neuronal differentiation score,[1]; library: Spectrum,inactive: 0
same,dopaminergic neuron differentiation score,[2]; library: Spectrum,inactive: 0
COc1c2ccoc2cc2oc(=O)ccc12,neuronal differentiation score,[1]; library: Spectrum,inactive: 0
same,dopaminergic neuron differentiation score,[2]; library: Spectrum,inactive: 0
O=S(=O)(c1cccc2cnccc12)N1CCNCC1,neuronal differentiation score,[1]; library: LOPAC,inactive: -1
same,dopaminergic neuron differentiation score,[2]; library: LOPAC,inactive: 0
CCCCCCCC/C=C\CCCCCCCC(=O)NCc1ccc(O)c(OC)c1 [Olvanil],neuronal differentiation score,[1]; library: Tocriscreen,inactive: 0
same,dopaminergic neuron differentiation score,[2]; library: Tocriscreen,inactive: 0
CCCNC[C@H](O)COc1ccccc1C(=O)CCc1ccccc1 [(S)-(-)-propafenone hydrochloride],neuronal differentiation score,[1]; library: LOPAC,inactive: 0
same,dopaminergic neuron differentiation score,[2]; library: LOPAC,inactive: 0
Cc1cccc(Nc2ccncc2S(=O)(=O)NC(=O)NC(C)C)c1,neuronal differentiation score,[1]; library: Spectrum,inactive: 0
same,dopaminergic neuron differentiation score,[2]; library: Spectrum,inactive: 0

# Two entries from above, with bars between the fields:
compound | measurement | setting | value
O=C(O[C@@H]1C[C@@H]2C[C@H]3C[C@H](C1)N2CC3=O)c1c[nH]c2ccccc12 [Dolasetron mesilate] | dopaminergic neuron differentiation score | [2]; library: Prestwick | inactive: 0
NC(N)=O | neuronal differentiation score | [1]; library: Spectrum | inactive: 0

# — the supplement of paper PMC4635364
